Test results from patent US20080254024A1 (Genentech, published 2008).
Results are given in words; binding and its absence hold for the method and conditions named. Some binding calls cover weakened binding; strength is not graded here. Tags and fused reporters may be left off the sequences shown.

What was measured:
[1] = biological target: T1, EphB2 ligand binding domain construct ss.EphB2LBD.gD.GPI (amino acids 19 to 208 of human EphB2) on transiently transfected 293 cells (human) (UniProt P29323); assay: FACS on ss.EphB2LBD.gD.GPI-293 cells
T1 sequence (chain, COOH-terminal GPI linker): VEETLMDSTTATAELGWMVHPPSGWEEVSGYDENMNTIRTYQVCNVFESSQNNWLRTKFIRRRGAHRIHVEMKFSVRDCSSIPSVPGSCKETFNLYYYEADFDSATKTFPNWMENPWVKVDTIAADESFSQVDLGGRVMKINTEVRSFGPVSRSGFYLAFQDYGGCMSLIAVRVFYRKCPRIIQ

[2] = biological target: NH2-terminal GD epitope-tagged human EphB2 overexpressed on cells (HT1080-EphB2, SVT2-EphB2) (human) (UniProt P29323); assay: flow cytometry on HT1080 cells overexpressing EphB2, detection with FITC-conjugated anti-human Fc
[3] = biological target: T1, EphB2 ligand binding domain construct ss.EphB2LBD.gD.GPI (amino acids 19 to 208 of human EphB2) on transiently transfected 293 cells (human); assay: FACS on ss.EphB2LBD.gD.GPI-293 cells, FITC anti-human IgG Fc detection

Measured: binding

B1: ephrin-B1-Fc fusion protein (Fc fusion, human, UniProt P98172 28-237, looked up, not shown: a dimerising Fc or GST)
chain: LAKNLEPVSWSSLNPKFLSGKGLVIYPKIGDKLDIICPRAEAGRPYEYYKLYLVRPEQAAACSTVLDPNVLVTCNRPEQEIRFTIKFQEFSPNYMGLEFKKHHDYYITSTSNGSLEGLENREGGVCRTRTMKIIMKVGQDPNAVTPEQLTTSRPSKEADNTVKMATQAPGSRGSLGDSDGKHETVNQEEKSGPGASGGSSGDPDGFFNSK
binds: all assays above
